Source: PMC9065117
Results are given in words; binding and its absence hold for the method and conditions named. Binding seen in cells or lysates may run through a third protein. Some results given as binding are weak or reduced against the parent protein; the word gives no strength.

By UniProt entry, the sequences of proteins in these tests, tags left out.
UniProt P46527: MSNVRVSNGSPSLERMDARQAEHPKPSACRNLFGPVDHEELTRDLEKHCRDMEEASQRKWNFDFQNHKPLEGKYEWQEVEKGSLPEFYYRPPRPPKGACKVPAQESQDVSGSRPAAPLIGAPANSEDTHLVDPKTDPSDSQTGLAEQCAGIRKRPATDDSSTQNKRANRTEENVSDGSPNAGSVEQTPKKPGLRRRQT

Tests used:
[1] = biological target: T1, stathmin (human (endogenous in MDA-MB-231)) (UniProt P16949); experiment: proximity ligation; in situ Duolink PLA in fixed (4% PFA), permeabilised MDA-MB-231 cells with anti-stathmin and anti-p27 antibodies; cells transfected with siCTRL or siHMGA1 for 72 h
T1 sequence: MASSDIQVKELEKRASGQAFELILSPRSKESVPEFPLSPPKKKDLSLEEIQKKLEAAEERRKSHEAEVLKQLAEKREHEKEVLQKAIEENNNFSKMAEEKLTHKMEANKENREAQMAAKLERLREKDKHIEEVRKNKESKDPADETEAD

[2] = biological target: T1, stathmin (human (endogenous in MDA-MB-231)); experiment: co-IP; 0.7-1 mg total MDA-MB-231 extract (RIPA lysis) incubated with anti-stathmin or non-specific IgG antibody in HNTG buffer (20 mM HEPES, 150 mM NaCl, 10% glycerol, 0.1% Triton X-100) overnight at 4 °C, protein A or G Sepharose; western blot; cells transfected with siCTRL or siHMGA1

## cyclin-dependent kinase inhibitor p27^kip1 (from UniProt P46527 1-198)
[1]
  binding: binds
[2]
  binding: binds
